# Data taken from PMC10163288.
# The other results are listed elsewhere or left out.
# B1: il10ra_site1_sap_32_mot_HHH_b1_03262_af2_000000181_0001_43_57_H_._HHH_b1_07369_0001_0000100002_0000002_0_0001 (protein)
# chain: SSSSSSDIERYVKMALRFAKRIQDEEARRFMLRAAEEMAKRANDEELHEEVEEVIRELSSSSSSS
# B2: il10ra_site1_normal_mot_HHH_b2_04275_000000272_0001_20_36_H_._HHH_b1_04109_0001_0000400023_0000001_0 (protein)
# chain: SSSSTEENRRIYELLRELARLVHEGDEEEFERVVEEIERLIEEAGNENLEAQLRFLERIFNSSSS
# B3: il10ra_site1_normal_mot_HHH_b1_06789_af2_000000041_0001_1_20_H_._HHH_b1_02475_0001_0000600043_0000001_0_1_af2pred_0001 (protein)
# chain: SSSSSTSAEHLVRLALLAVELAAKLDPEKAERALEIAELLARQANNEELEERVEELKKELSSSSS
# B4: il10ra_site1_sap_18_mot_HHH_b1_06816_000000239_0001_1_19_H_._HHH_b1_05231_af2_0001_0000500018_0000001_0_0001_af2pred_0001 (protein)
# chain: SSSSSEEVRQRAREIYEELKELLEEGDEERVQKLSHELAELALKGRDREAARLASEIIQLLSSSS
# B5: il10ra_site1_sap_18_mot_HHH_b2_00622_af2_000000153_0001_40_57_H_._3cb01cd59277439e4f5c2b5f7f6b6153_0001_1_0001_0000400007_0000001_0_0001_af2pred_0001 (protein)
# chain: SSSSDVHERVEELLEEARELAEEGDKEKVLQLLFEAARIAQENNNEELLREILEVAARLLSSSSS
# B6: il10ra_site1_sap_20_mot_HHH_b2_01447_af2_000000258_0001_1_20_H_._HHH_b1_05841_af2_0001_0000300026_0000001_0_0001_af2pred_0001 (protein)
# chain: SSSSSEEERRVVQLLLEALRAIREGDEEKVEELLEEARRLAEELNNPELELLVKLVEAQRESSSS
# B7: il10ra_site1_sap_20_mot_HHH_b1_05056_000000217_0001_1_20_H_._HHH_b2_07317_0001_0000300031_0000001_0_0001 (protein)
# chain: SSSSSDYEEEVEELLEEAERIEDPEEAARVLQKAVRLAIHAQDPELLRLVWEVVHKIAGSSSSSS
# B8: il10ra_site1_normal_mot_HHH_b2_00345_af2_000000013_0001_42_56_H_._HHH_b2_01857_0001_0000400035_0000002_0 (protein)
# chain: SSSSSDEEEEEVEELLEEAKHIEDHEKRIEILLEATHLALRAQDPELVQLVWEVFHRLIRSSSSS
# B9: il10ra_site1_normal_mot_HHH_b1_08477_000000091_0001_40_57_H_._ems_3hM_3465_0001_0000500019_0000001_0 (protein)
# chain: SNQEEQAVRFVERLARFAIERNDKRAIELVLQLARFVAESIDNPELSEEVEELIKELEEALKSSS
# B10: il10ra_site1_sap_11_mot_HHH_b2_07006_000000108_0001_1_19_H_._HHH_b2_05318_0001_0000800037_0000002_0_0001 (protein)
# chain: SSSSFHEVWELSRRIAEAIREGDEERVRELLEQLEELLEETGDPMVEYILKALRLLFEHTFSSSS
# B11: il10ra_site1_normal_mot_6792f2186577ebd01aa11eb855ed7b57_0001_af2_000000149_0001_1_16_H_._HHH_b1_02093_af2_0001_0000100001_0000002_0 (protein)
# chain: SSSSSDEEEVEELERRVEELEKEGDRERASRLLYEAAKIAARLGDRRLAQELIELFIRLSSSSSS
# B12: il10ra_site1_normal_mot_HHH_b1_00999_000000080_0001_41_55_H_._HHH_b1_02466_af2_0001_0000400032_0000002_0 (protein)
# chain: SSSSSDEEFAQLIQRAVQYAFRLGDQETLQRIWELARLYGEKGDPEVEEELERLLEELERRSSSS
# B13: il10ra_site1_sap_31_mot_HHH_b2_07440_af2_000000021_0001_1_18_H_._HHH_b2_04449_0001_0000200017_0000001_0_0001 (protein)
# chain: SSSSDVEEEVEELLEQVRELIERGDEHEAAQLLFKAMRLAYENRNEELWEKIIELAAKLQSSSSS
# B14: il10ra_site1_sap_24_mot_HHH_b2_03434_000000017_0001_1_19_H_._HHH_b1_00954_af2_0001_0000300029_0000001_0_0001 (protein)
# chain: SSSSSEENRELYELSREAMELLRNGNPEEAEKVLEEARELAEEAGNFVALFVIRHVLRVLRSSSS
# B15: il10ra_site1_normal_mot_HHH_b2_03038_000000109_0001_1_20_H_._HHH_b1_06551_0001_0000300020_0000001_0 (protein)
# chain: SSSSSEEHEELYELLREANELVRNNDEERAREILEEIEKLAEEVNDDIVRAILEFLERELESSSS
# B16: il10ra_site1_normal_mot_8756ee2cf497b5429c717dfc0c0bcfd6_0001_000000186_0001_1_13_H_._HHH_b1_06747_0001_0000300034_0000001_0_af2pred_0001 (protein)
# chain: SSSSSEEREELFELLRLVAELDKDGNPEEARRVLEEARELAEELGNLVAEAIIRFLEKHLSSSSS
# B17: il10ra_site1_normal_mot_HHH_b2_02177_af2_000000045_0001_40_57_H_._ems_3hM_198_af2_0001_0000300014_0000001_0 (protein)
# chain: SSDAREEVEKLYEELEEAAKKKDQELISEVAQKASRLALEEGDEELLHEIYRLFKEAIELLRSSS
# B18: il10ra_site1_normal_mot_05ca327611f5605f0dd8494b449afcbf_0001_1_000000248_0001_35_51_H_._HHH_b2_03460_af2_0001_0000100003_0000002_0 (protein)
# chain: SSSSDASQEVQELIERAFELAHEGDEEEAERLLEEAERLAEENNNEILKFAVRAAKRALNSSSSS
# Target: il10ra, Q13651
# Experiment: yeast display titration
row,Binder,apparent Kd
1,B1,inactive: no binding seen
2,B2,inactive: no binding seen
3,B3,inactive: no binding seen
4,B4,inactive: no binding seen
5,B5,inactive: no binding seen
6,B6,inactive: no binding seen
7,B7,inactive: no binding seen
8,B8,inactive: no binding seen
9,B9,inactive: no binding seen
10,B10,inactive: no binding seen
11,B11,inactive: no binding seen
12,B12,inactive: no binding seen
13,B13,inactive: no binding seen
14,B14,inactive: no binding seen
15,B15,inactive: no binding seen
16,B16,inactive: no binding seen
17,B17,inactive: no binding seen
18,B18,inactive: no binding seen

# Given tab-delimited: entries from further up
row	Binder	apparent Kd
15	B15	inactive: no binding seen
16	B16	inactive: no binding seen
